From publication PMC8187792
No constants are given. Whether binding was seen depends on the method and setting. Binding seen in cells or lysates may run through a third protein. Here binding means that the protein was enriched with, or labelled near, the bait; the list need not be complete. Sequences can lack the tags named with a protein.

Protein sequences, listed by entry. Tags and fused reporters are not part of them.
UniProt Q60737: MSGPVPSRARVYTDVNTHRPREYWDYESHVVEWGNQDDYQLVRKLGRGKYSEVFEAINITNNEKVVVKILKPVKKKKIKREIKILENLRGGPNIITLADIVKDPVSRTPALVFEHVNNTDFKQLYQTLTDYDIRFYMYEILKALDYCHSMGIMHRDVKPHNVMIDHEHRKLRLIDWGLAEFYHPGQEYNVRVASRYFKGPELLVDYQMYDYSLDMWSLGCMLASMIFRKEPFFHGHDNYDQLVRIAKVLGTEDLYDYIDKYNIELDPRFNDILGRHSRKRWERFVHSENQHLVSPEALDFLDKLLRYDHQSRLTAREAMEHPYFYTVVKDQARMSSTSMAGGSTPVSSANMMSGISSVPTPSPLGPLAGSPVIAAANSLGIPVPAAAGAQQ
UniProt Q60598: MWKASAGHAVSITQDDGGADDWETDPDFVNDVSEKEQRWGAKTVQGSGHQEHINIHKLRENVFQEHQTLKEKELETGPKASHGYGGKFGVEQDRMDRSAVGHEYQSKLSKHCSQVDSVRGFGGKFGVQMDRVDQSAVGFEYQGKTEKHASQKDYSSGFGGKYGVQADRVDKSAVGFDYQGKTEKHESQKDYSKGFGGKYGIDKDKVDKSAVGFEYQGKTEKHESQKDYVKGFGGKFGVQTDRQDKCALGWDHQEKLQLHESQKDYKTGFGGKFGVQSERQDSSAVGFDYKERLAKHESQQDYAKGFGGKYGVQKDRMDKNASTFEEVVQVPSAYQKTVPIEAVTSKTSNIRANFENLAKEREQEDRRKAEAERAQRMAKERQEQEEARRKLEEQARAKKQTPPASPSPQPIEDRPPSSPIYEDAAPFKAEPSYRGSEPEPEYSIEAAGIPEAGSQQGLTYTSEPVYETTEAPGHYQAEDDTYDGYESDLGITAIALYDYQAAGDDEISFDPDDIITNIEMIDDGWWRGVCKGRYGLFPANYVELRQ
UniProt P67871: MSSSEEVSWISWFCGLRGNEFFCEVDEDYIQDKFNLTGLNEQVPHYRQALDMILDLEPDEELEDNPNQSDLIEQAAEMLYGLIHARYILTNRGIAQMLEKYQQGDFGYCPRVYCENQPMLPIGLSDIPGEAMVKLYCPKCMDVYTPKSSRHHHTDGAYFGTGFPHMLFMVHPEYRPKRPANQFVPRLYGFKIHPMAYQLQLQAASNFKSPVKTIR

Target: T1, eGFP-tagged human NUMB 1 (human) (UniProt P49757)
T1 sequence: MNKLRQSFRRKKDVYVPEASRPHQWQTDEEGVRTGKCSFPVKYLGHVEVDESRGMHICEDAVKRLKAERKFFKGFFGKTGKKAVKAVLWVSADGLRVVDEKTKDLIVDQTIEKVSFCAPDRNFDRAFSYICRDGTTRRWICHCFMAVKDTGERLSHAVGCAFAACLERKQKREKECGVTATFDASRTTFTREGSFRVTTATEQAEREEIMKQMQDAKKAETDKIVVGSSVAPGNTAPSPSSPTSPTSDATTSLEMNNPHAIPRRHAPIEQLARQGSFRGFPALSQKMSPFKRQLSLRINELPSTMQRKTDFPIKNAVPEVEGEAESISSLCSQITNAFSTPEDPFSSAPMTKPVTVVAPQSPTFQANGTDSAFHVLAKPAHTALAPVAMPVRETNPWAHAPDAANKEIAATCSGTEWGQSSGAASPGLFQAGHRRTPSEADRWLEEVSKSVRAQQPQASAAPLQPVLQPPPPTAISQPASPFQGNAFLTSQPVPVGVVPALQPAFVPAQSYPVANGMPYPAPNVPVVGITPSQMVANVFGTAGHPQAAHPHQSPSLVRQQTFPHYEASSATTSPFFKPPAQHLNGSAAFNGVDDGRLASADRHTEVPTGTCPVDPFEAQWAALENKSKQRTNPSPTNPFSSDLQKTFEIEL
Assay: affinity purification with mass spectrometry; GFP-Trap_MA beads on lysates of stable NUMB-1-eGFP MLE12 cells, with eGFP cells as control; hits enriched more than twofold, p < 0.05

In the case of “casein kinase 2 α subunit (from UniProt Q60737 1-391) (enzyme)”, the binding is reported as “binds”.

With cortactin (from UniProt Q60598 1-546) the binding was “binds”.

With “casein kinase 2 β subunit (from UniProt P67871 1-215)” the binding was “binds”.
